In patent US20070225242A1, “Method and composition for treating and preventing tumor metastasis in vivo” (The Board of Trustees of the Leland Stanford Junior …, priority 2005, published 2007):
Results are given in words; binding and its absence hold for the method and conditions named. Some results given as binding are weak or reduced against the parent protein; the word gives no strength.

Sequences of proteins named here, by UniProt entry; tags and fusion partners are left off. Residues count along the entry.
UniProt P11276, residues 33-2477: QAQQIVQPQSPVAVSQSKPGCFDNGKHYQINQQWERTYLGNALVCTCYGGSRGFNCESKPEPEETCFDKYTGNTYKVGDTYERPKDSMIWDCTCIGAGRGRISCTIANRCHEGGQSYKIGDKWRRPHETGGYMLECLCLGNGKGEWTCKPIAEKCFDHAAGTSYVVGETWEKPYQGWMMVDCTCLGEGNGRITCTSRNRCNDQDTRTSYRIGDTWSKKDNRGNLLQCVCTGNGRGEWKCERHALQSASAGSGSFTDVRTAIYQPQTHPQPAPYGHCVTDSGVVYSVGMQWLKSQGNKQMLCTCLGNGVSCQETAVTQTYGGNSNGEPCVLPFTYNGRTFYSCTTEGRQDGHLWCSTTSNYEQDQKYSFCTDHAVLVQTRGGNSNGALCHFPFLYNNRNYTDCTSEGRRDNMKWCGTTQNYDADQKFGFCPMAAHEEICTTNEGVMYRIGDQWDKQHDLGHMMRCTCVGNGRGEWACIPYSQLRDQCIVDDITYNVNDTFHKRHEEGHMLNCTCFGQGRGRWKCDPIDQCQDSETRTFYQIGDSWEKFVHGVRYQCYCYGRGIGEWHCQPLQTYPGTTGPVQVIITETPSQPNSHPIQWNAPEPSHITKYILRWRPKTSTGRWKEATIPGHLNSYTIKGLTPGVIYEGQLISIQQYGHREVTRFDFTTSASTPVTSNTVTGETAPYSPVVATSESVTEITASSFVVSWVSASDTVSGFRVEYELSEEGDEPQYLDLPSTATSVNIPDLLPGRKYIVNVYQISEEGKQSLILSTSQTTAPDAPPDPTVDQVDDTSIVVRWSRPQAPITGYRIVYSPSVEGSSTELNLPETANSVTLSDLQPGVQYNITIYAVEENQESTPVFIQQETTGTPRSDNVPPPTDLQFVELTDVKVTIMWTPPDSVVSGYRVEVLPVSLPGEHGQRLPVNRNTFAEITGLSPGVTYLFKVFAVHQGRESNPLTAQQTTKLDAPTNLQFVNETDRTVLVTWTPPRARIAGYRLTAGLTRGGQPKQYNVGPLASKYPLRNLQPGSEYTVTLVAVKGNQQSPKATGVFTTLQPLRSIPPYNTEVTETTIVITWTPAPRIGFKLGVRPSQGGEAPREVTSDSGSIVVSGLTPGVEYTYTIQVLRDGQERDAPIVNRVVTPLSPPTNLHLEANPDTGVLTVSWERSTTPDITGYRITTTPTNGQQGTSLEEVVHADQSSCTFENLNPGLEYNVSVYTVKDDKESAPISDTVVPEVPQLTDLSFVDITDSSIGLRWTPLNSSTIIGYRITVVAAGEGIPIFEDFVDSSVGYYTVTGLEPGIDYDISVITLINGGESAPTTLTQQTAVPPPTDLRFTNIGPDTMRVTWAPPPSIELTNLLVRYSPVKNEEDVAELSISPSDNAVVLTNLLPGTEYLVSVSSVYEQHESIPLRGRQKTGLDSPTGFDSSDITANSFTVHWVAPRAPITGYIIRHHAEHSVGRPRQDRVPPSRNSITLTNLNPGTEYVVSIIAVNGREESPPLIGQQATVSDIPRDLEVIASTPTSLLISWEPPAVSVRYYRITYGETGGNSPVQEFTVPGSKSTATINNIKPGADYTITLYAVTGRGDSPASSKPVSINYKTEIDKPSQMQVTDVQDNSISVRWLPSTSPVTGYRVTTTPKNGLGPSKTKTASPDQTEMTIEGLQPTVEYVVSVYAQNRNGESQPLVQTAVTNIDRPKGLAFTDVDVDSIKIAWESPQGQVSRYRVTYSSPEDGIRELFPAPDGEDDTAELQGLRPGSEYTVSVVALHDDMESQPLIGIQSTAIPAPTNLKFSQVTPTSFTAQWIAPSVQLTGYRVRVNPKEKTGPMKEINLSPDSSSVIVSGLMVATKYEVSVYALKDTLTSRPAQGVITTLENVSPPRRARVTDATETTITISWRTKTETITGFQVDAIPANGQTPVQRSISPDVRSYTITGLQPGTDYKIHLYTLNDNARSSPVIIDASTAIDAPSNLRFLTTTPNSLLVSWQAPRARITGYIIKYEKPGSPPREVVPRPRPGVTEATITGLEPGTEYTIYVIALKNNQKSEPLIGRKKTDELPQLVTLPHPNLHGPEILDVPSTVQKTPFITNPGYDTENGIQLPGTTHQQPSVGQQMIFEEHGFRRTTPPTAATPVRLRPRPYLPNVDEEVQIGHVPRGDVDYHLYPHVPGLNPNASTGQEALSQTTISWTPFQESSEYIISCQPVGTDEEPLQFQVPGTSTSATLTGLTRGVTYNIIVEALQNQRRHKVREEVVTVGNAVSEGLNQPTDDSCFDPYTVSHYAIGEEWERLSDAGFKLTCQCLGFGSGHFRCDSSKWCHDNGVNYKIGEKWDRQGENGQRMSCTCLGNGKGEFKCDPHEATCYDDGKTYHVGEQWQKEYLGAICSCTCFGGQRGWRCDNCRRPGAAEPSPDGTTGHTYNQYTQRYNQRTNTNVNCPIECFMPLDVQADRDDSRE

Tests used:
fibronectin (FN) (mouse) [1] = target: fibronectin (FN) (mouse) (UniProt P11276); assay: immunofluorescent co-staining of lung sections (co-localization)
fibronectin (FN) (mouse) [2] = target: fibronectin (FN) (mouse) (UniProt P11276); assay: merged immunofluorescent staining for LOX and FN in pulmonary metastatic lesions (co-localization)

B1: human lysyl oxidase (hLOX), secreted by human tumor cells (MDA231) (enzyme)
chain: DDPYNPYKYSDDNPYYNYYDTYERPRPGGRYRPGYGTGYFQYGLPDLVADPYYIQASTYVQKMSMYNLRCAAEENCLASTAYRADVRDYDHRVLLRFPQRVKNQGTSDFLPSRPRYSWEWHSCHQHYHSMDEFSHYDLLDANTQRRVAEGHKASFCLEDTSCDYGYHRRFACTAHTQGLSPGCYDTYGADIDCQWIDITDVKPGNYILKVSVNPSYLVPESDYTNNVVRCDIRYTGHHAYASGCTISPY
Fibronectin (FN) (mouse) [1]
  binding: binds
Fibronectin (FN) (mouse) [2]
  binding: binds
